Data source: PubChem BioAssay AID504764 (Drosophila RNAi Screening Center, 2011)

Assay: 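Genes whose knock-down alters Notch-dependent transcription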 (primary screen)
Cell system: Drosophila Kc167 cells
Knock-down reagent: long dsRNA against Drosophila genes
Duration: about 5 days (4 days dsRNA, then 24 h after transfection)
Conditions: transfection of constitutively active membrane-tethered Notch lacking the extracellular domain, read 24 h later
Read-out: 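Firefly luciferase from an E(spl)m3 reporter with active Notch, plus control-promoter and uninduced reporter wells for normalisation; unnormalised counts, duplicate wells a and b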
Scale: induced reporter light, run 1, well a and induced reporter light, run 1, well b: higher = more light from the Notch target reporter with active Notch; control promoter light, run 1, well a and control promoter light, run 1, well b: higher = more light from the viral control promoter (cell number, transfection, viability); uninduced reporter light, run 1, well a: higher = more light from the Notch target reporter without active Notch
Call rule: 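Hit if the duplicate-averaged log2 ratio of induced to control-promoter light gives a plate-wise z beyond ±2, or induced to uninduced beyond ±1.8; weak-control or discordant-duplicate wells dropped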
Meaning of the calls: active = modifier hit (raised or lowered Notch signal); inactive = not a hit
The screen tested about 22,000 reagents; below is a random part of those that have a named target and a result. Of all reagents, 403 (1.9%) got an active call. 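Unnormalised raw counts per well; ratio z-scores behind the hit calls and whether each hit raises or lowers signal are not deposited.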 Reagents against one gene are numbered here. A plus sign joins genes that one reagent is predicted to hit. Not given: the amount of reagent.

target gene	reagent	induced reporter light, run 1, well a	induced reporter light, run 1, well b	control promoter light, run 1, well a	control promoter light, run 1, well b	uninduced reporter light, run 1, well a	Call
TotF	1	62505	49780	70855	51900	3700	inactive
Taf3	1	1.57e5	1.75e5	99210	99960	12175	active
Nrx-IV	1	1.23e5	1.09e5	88800	56790	10570	inactive
ifc	1	1.48e5	1.54e5	1.57e5	1.53e5	16285	inactive
CG2217 + CG42740	1	57250	69545	60735	73265	4010	inactive
swi2	1	36150	40655	32670	47955	3355	inactive
CG14787	1	1.00e5	1.08e5	2.25e5	2.17e5	6882	inactive
CG7365	1	1.22e5	1.08e5	70100	81815	8078	inactive
Cyp6g2	1	96375	1.07e5	1.30e5	1.47e5	9855	inactive
Lmpt	1	1.35e5	1.48e5	1.94e5	1.96e5	11040	inactive
Lmpt	2	1.77e5	1.46e5	2.11e5	1.64e5	8095	inactive
Lmpt	3	1.35e5	1.39e5	82135	1.08e5	9820	inactive
Lmpt	4	1.81e5	1.59e5	1.81e5	1.71e5	9835	inactive
Lmpt	5	1.61e5	1.57e5	1.85e5	1.70e5	9150	inactive
Lmpt	6						inactive
CG32772	1	1.49e5	1.73e5	2.41e5	1.99e5	9638	inactive
CG32772	2	3.06e5	2.80e5	4.25e5	4.13e5	18685	inactive
CG7130	1	1.25e5	1.02e5	1.06e5	95480	7455	inactive
frj	1	1.51e5	1.68e5	1.69e5	1.66e5	11850	inactive
CG15754	1	92875	94515	1.57e5	1.61e5	7042	inactive
schuy	1	1.24e5	1.14e5	99720	99920	8925	inactive
Dnaaf6	1	1.78e5	1.80e5	1.75e5	1.56e5	9200	inactive
CG30001	1	76850	97350	1.04e5	1.22e5	4730	inactive
CG1999	1	2.65e5	2.23e5	2.91e5	2.80e5	14250	inactive
CG17770 + Acam	1	1.77e5	1.68e5	2.02e5	1.93e5	11675	inactive
CG17770 + Acam	2	1.47e5	1.59e5	2.15e5	1.77e5	11525	inactive
dany	1	30400	41435	34170	27745	2345	inactive
CoRest	1	1.20e5	1.06e5	93375	54325	10315	inactive
CG4646	1	95820	97955	1.21e5	1.05e5	9340	inactive
ETHR	1	2.19e5	2.00e5	2.44e5	2.65e5	13588	inactive
RpL35	1	31150	28560	34540	39965	1465	inactive
Fur1	1	2.58e5	2.26e5	2.26e5	2.50e5	18655	inactive
Fur1	2	2.18e5	2.67e5	2.96e5	3.01e5	14920	inactive
Mal-A6	1	2.00e5	1.56e5	1.84e5	2.09e5	14030	inactive
CG12817	1	92445	81570	76725	51255	8045	inactive
CG13185	1	1.14e5	1.22e5	1.35e5	1.20e5	9270	inactive
Cpr78E	1	1.53e5	1.35e5	1.70e5	1.25e5	10870	inactive
Fer1	1	74165	73990	83300	90100	6525	inactive
Fer1	2	70270	88565	69865	69220	6670	inactive
CG9389	1	1.45e5	1.12e5	1.03e5	1.49e5	10880	inactive
tral	1	49860	58480	24370	13450	6870	inactive
cpx	1	2.20e5	2.56e5	2.53e5	2.71e5	17245	inactive
Jhbp7	1	1.76e5	1.53e5	2.03e5	1.78e5	13465	inactive
CG13908 (retired record)	1	1.42e5	1.62e5	1.87e5	1.81e5	7820	inactive
CG17739	1	2.30e5	1.92e5	1.70e5	1.53e5	14665	inactive
CG15366 (retired record)	1	1.27e5	1.45e5	2.56e5	2.66e5	10390	inactive
CG2930	1	44255	42450	44520	47765	2750	inactive
CG31300	1	1.46e5	1.49e5	1.98e5	2.25e5	11215	inactive
CG5665	1	1.04e5	1.19e5	92355	1.07e5	7045	inactive
CG11570	1	1.07e5	1.07e5	1.23e5	94370	7120	inactive

Hits (from the list above):
target gene	reagent	induced reporter light, run 1, well a	induced reporter light, run 1, well b	control promoter light, run 1, well a	control promoter light, run 1, well b	uninduced reporter light, run 1, well a	Call
Taf3	1	1.57e5	1.75e5	99210	99960	12175	active
